Reference: article PMC4947123
Results are given in words; binding and its absence hold for the method and conditions named. In cells and extracts the contact can be indirect. Some results given as binding are weak or reduced against the parent protein; the word gives no strength.

Chains of the proteins cited; added tags and fusions are not shown. Lines headed by an entry give the natural chain unless they say otherwise; changes in a name come on top.
UniProt P56959: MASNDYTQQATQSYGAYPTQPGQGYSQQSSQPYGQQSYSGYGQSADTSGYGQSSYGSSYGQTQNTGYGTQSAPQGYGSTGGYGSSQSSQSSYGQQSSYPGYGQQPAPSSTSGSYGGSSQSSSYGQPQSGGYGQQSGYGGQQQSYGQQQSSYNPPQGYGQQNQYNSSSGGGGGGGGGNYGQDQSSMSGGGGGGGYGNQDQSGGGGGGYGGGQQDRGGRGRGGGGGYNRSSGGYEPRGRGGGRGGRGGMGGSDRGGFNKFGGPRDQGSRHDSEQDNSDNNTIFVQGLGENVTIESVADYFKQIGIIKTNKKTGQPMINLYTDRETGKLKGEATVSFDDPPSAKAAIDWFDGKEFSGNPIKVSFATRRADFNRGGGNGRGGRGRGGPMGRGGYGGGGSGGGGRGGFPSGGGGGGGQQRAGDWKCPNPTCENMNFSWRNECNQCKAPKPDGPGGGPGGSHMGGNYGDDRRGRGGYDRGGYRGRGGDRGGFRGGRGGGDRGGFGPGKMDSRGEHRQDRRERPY

Key:
Experiment in all cases: co-IP; endogenous proteins, N2A lysate (20 mM Tris-HCl pH 7.5, 150 mM NaCl, 1 % NP-40, 10 % glycerol), IP with antibodies against Atxn2, Fus or Tdp-43, protein A or G magnetic beads, immunoblot; IgG control
[1] = target: endogenous Tdp-43 (mouse (endogenous in N2A)) (UniProt Q921F2)
[2] = target: T1, endogenous Atxn2 (mouse (endogenous in N2A)) (UniProt O70305)
T1 sequence: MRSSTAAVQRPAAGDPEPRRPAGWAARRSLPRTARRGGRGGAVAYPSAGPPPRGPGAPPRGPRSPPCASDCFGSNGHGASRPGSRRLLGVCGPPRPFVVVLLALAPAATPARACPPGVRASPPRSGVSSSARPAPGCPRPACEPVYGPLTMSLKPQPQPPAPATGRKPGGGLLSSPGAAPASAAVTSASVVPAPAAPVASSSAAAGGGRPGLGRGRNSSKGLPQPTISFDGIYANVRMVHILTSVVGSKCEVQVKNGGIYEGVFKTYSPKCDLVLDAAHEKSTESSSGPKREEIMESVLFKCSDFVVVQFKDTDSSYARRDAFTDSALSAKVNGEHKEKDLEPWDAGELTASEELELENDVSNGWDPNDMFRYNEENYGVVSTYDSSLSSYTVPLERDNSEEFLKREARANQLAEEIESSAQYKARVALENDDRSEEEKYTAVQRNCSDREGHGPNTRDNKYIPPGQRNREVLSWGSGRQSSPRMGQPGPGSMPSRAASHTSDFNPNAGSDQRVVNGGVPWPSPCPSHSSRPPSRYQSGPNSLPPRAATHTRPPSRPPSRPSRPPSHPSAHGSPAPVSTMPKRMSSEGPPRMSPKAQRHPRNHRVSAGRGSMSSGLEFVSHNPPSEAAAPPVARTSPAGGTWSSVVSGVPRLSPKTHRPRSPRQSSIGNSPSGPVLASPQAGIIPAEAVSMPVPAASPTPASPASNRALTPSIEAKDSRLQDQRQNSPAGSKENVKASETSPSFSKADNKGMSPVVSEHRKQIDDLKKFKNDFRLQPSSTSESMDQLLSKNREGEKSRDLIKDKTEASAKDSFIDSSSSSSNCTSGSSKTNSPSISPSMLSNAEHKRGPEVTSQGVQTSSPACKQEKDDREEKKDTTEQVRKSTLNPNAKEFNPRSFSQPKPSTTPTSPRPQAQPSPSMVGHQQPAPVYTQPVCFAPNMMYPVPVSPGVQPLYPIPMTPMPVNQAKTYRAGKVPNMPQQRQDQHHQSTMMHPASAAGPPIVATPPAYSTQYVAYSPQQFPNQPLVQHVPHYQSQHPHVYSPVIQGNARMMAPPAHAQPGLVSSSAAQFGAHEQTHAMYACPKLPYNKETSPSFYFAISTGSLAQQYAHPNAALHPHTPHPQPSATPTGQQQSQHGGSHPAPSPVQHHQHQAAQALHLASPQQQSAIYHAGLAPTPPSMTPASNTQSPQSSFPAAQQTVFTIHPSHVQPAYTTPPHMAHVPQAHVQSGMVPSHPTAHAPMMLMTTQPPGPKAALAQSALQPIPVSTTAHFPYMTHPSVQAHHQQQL

[3] = target: endogenous Fus (mouse (endogenous in N2A, NSC-34, primary mouse cortical neurons)) (UniProt P56959)

Measured: binding

B1: Caprin1 (protein, UniProt Q60865 1-707)
chain: MPSATSHSGSGSKSSGPPPPSGSSGSEAAAGAAAPASQHPATGTGAVQTEAMKQILGVIDKKLRNLEKKKGKLDDYQERMNKGERLNQDQLDAVSKYQEVTNNLEFAKELQRSFMALSQDIQKTIKKTARREQLMREEAEQKRLKTVLELQYVLDKLGDDDVRTDLKQGLSGVPILSEEELSLLDEFYKLVDPERDMSLRLNEQYEHASIHLWDLLEGKEKPVCGTTYKALKEIVERVFQSNYFDSTHNHQNGLCEEEEAASAPTVEDQVAEAEPEPAEEYTEQSEVESTEYVNRQFMAETQFSSGEKEQVDEWTVETVEVVNSLQQQPQAASPSVPEPHSLTPVAQSDPLVRRQRVQDLMAQMQGPYNFIQDSMLDFENQTLDPAIVSAQPMNPTQNMDMPQLVCPQVHSESRLAQSNQVPVQPEATQVPLVSSTSEGYTASQPLYQPSHATEQRPQKEPMDQIQATISLNTDQTTASSSLPAASQPQVFQAGTSKPLHSSGINVNAAPFQSMQTVFNMNAPVPPANEPETLKQQSQYQATYNQSFSSQPHQVEQTELQQDQLQTVVGTYHGSQDQPHQVPGNHQQPPQQNTGFPRSSQPYYNSRGVSRGGSRGARGLMNGYRGPANGFRGGYDGYRPSFSNTPNSGYSQSQFTAPRDYSGYQRDGYQQNFKRGSGQSGPRGAPRGRGGPPRPNRGMPQMNTQQVN
binds: all assays above
